The whole screen tested about 1,400 compounds, of which about 50 (4%) were called active.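 How the source made its calls: active means fitted curve reaches 30% CPE protection at or below the top valid dose, with every test run called active; inconclusive means test runs disagree, some active and some not; inactive means every test run inactive, including effects in the wrong direction.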 This is one part of the list. Entries with a potency or affinity are not part of this list.
assay: antiviral rescue of DENV2-infected BHK-21 cells – cell-based, ATP luminescence, cherry-pick, dose response (AID 687031); settings: BHK-21 DENV2 CPE protection, 5 d; at 19.5 µM (top of the series) unless noted;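 further: 0% = infected DMSO wells and 100% = uninfected cell wells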

CPE protection (higher = active), inactive:
Cc1ccc(CNCc2cc(Cl)ccc2O)cc1 -18.1%
CC(=O)NC[C@H]1[C@H](c2ccc(-c3ccccc3F)cc2)[C@@H](CO)N1C(=O)C1CC1 -16.5%
CCc1ccc(NC(=O)N(CCCN2CCOCC2)Cc2cccs2)cc1 -13%
CC(=O)Nc1ccc(-c2ccnc3c2CC(C(=O)Nc2ccccc2)O3)cc1 (stereo not given) -11.2%
CCOc1ccc(OCC(=O)N(C)c2c(N)n(Cc3ccccc3)c(=O)[nH]c2=O)cc1 0.088%
C=CCOc1ccccc1OCC(O)CNC(C)C (stereo not given) 10.9%
CN(c1cccc(NC(=O)c2ccc(C(C)(C)C)cc2)c1)S(C)(=O)=O -35.6%
Cc1csc(-c2nc3ccccc3n2C(C(=O)NC(C)(C)C)c2ccccc2)c1 (stereo not given) -21.3%
COc1ccc(CN(C(=O)c2ccc(C)cc2)c2cccc(N)c2)cc1 -13.5%
CC(C)(C)OC(=O)N1CCC(NC(=O)c2nc[nH]c2C(=O)NCC(=O)OCc2ccccc2)CC1 -1.19%
CC(C(=O)NCc1ccccc1)n1c(CSCCOc2ccccc2)nc2ccccc21 (stereo not given) 14.1% [at 10 µM]
O=C(C[C@@H]1CC[C@H]2[C@@H](COC[C@@H](O)CN2Cc2cccc(Cl)c2)O1)N1CCOCC1 -1.26%
CN1CCC(=O)N([C@H](COc2ccccc2)Cc2ccccc2)CC1 4.89%
CCOc1ccc2nc(NC(=O)CN3CCN(CC)CC3)sc2c1 -2.67%
C[C@@H]1CN([C@@H](C)CO)C(=O)CCCn2cc(nn2)CO[C@H]1CN(C)C(=O)Nc1cccc2ccccc12 12.5% [at 21 µM]
COc1ccc(/C=N\NC(=O)c2ccc(-c3ccccc3)cc2)cc1COC(C)=O 7.02%
CC1(C)CN(Cc2cccnc2)C(=O)[C@H]1CC(=O)Nc1ccc(Br)cc1 -8.43%
Cc1noc(C)c1S(=O)(=O)Nc1ccc2c(c1)C(=O)N([C@@H](C)CO)C[C@@H](C)[C@H](CN(C)C(=O)Nc1ccccc1)OCCCC[C@@H](C)O2 -30.8%
CCC(=O)Nc1nnc(/C=C/c2ccc(OC)cc2)s1 21.1%
CCOC(=O)N1CCN(Cc2nc3cc(NC(=O)CC)ccc3n2CC)CC1 15.8%
CCCNC(=O)N1[C@H](CO)[C@H](c2ccccc2-c2ccccc2)[C@@H]1C#N -6.89% [at 21 µM]
Cc1oc2cc3oc(=O)c(CCC(=O)NCCCn4ccnc4)c(C)c3cc2c1C -30%
CC(=O)N1[C@H](CO)[C@H](c2ccccc2)C12CN(C(=O)CN1CCOCC1)C2 6.64%
COc1ccc(Cl)cc1N1C(=O)CC(N2CCN(S(=O)(=O)c3ccccc3F)CC2)C1=O (stereo not given) -0.667%
O=C(CCn1cncn1)N1CCCC(N2CCN(c3ccc(F)cc3)CC2)C1 (stereo not given) -11.5%
C[C@H](NC(=O)C1CCN(S(=O)(=O)c2ccccc2)CC1)C(=O)NCc1cccnc1 11.9%
O=C(CCc1nc2ccccc2c(=O)[nH]1)N1CCCc2ccccc21 -18.8%
CO[C@@H]1CN(C)C(=O)c2ccc(NC(=O)Nc3cc(F)ccc3F)cc2OC[C@@H](C)N(C(=O)c2ccccn2)C[C@H]1C 17.2% [at 21 µM]
CCN1CCN(C(=O)C2CC(=O)N(c3ccc(Cl)cc3)C2)CC1 (stereo not given) -9.64%
O=C(c1ccc(CNc2c(N3CCCC3)c(=O)c2=O)cc1)N1CCN(C2CCCCC2)CC1 5.25%
CCC1=C(OC(=O)N(CC)CC)N2C(=O)OC(=NCC3CC3)[C@]2(C)[C@H]2C1=CC[C@H]1C(=O)NC(=O)[C@H]12 2.64%
CCOC(=O)N/N=C/c1cc(C)n(-c2cccc3ccccc23)c1C 13.1%
COc1ccc(S(=O)(=O)Nc2ccc3c(c2)C(=O)N([C@@H](C)CO)C[C@@H](C)[C@H](CN(C)S(=O)(=O)c2ccc(Cl)cc2)O3)cc1 6.17% [at 21 µM]
Oc1cc2c(cc1O)C(c1ccccc1)CNCC2 (stereo not given) -12.6%
O=S1(=O)CCOC[C@H](Cc2ccccc2)N1Cc1cccc(F)c1 14.1% [at 10 µM]
CCOc1ccc(NC(=O)C2CC(=O)N(CCc3ccccc3)C2)cc1OC (stereo not given) -11.4%
Cc1ccc(S(=O)(=O)NC(=O)C2(C)CCN2C(=O)Cc2cccs2)cc1 (stereo not given) -2.07%
COc1ccc(Br)cc1[C@H]1[C@H]2C=CC[C@@H](C)[C@@H]2C(=O)N1Cc1ccccc1 -20.3%
CC(C)(C)OC(=O)C(Cc1ccc(OC(C)(C)C)cc1)NC(=O)CNC(=O)OCc1ccccc1 (stereo not given) -14.3%
Cc1ccc(S(=O)(=O)N2CCOCC2)cc1NC(=O)CN(C)CC(=O)Nc1cccc(F)c1 -5.13%
COCc1cccc(-c2csc(C(N)c3ccc(F)c(F)c3)n2)c1 (stereo not given) 0.55%
CC(=O)Nc1cccc2ncccc12 7.69%
Cc1ccc(SCCN2CCC(NC(=O)OCc3ccccc3)CCC2=O)cc1 (stereo not given) -8.36%
COc1ccccc1C(=O)Nc1ccc2c(c1)CN(Cc1cnc(C)s1)CC2 -14.8%
Cc1cc(C)n2c(Nc3ccc4c(c3)OCCO4)c(CC(C)C)nc2n1 3.78%
COc1ccccc1Cn1c(=S)[nH]c2cc(C(=O)N3CC(C)CC(C)C3)ccc2c1=O (stereo not given) 2.5%
O=C(NCC1CCCO1)c1ccc(S(=O)(=O)Nc2ccccc2F)cc1 (stereo not given) 2.64%
COc1ccc(S(=O)(=O)N(C)C[C@@H]2Oc3ccc(NS(=O)(=O)c4ccccc4)cc3C(=O)N([C@H](C)CO)C[C@H]2C)cc1 -7.04%
CCCNC(=O)[C@H]1[C@H](CO)[C@H]2Cn3c(cccc3=O)[C@H]2N1Cc1ccccc1Cl -16.8% [at 21 µM]
Cc1cc(C)n2c(Nc3c(C)cccc3C)c(CCc3ccccc3)nc2n1 6.99%
O=C(NCCCCNC(=O)c1cccnc1Cl)c1cccnc1Cl -18.4%
Cc1ccccc1-c1csc(C(C)(O)c2ccccc2)n1 (stereo not given) 16.6%
COc1ccc(Cl)cc1NC(=O)CN(C)C(=O)C1COc2ccccc2O1 (stereo not given) -19.1%
C[C@@H]1CCCCO[C@@H](CN(C)C(=O)Nc2cccc3ccccc23)[C@H](C)CN([C@H](C)CO)C(=O)c2cc(NC(=O)CCC(F)(F)F)ccc2O1 -31.9%
CCn1c2c(n(C(C)=O)c1=O)C[C@@H](c1ccccc1)[C@@H](C)[C@@H](C(=O)N1CCCC1)C2 -3.98%
Cc1ccc(S(=O)(=O)Nc2ccc(O)c3ncccc23)cc1 18.2%
COc1ccc2nc(NN=Cc3cccc(C)n3)cc(C)c2c1 -0.492%
C[C@@H]1CN([C@H](C)CO)C(=O)c2cc(NC(=O)CCC(F)(F)F)ccc2O[C@@H](C)CCCCO[C@@H]1CN(C)C(=O)C1CCCCC1 0.852%
CCCc1nc2ccccc2n1C(C)C(=O)NC(C)(C)C (stereo not given) 20.8%
O=C1NC(c2ccccc2)=CC(c2ccccc2O)N1 (stereo not given) -4.39%
CN(C)CCNc1nc2sc3c(c2c(=O)n1-c1ccc(F)cc1)CCCCC3 -4.86%
CCNC(=O)C[C@H]1CC[C@H]2[C@H](COc3ccc(NC(=O)c4ccc(F)c(F)c4)cc3C(=O)N2C)O1 -15.2%
O=S(=O)(c1ccc(F)cc1)N1CC[C@@H]2[C@H]1c1cc(-c3ccc(F)cc3)ccc1N[C@@H]2CO -24%
Cc1ccc(S(=O)(=O)Nc2cccc(C(=O)NCCCn3ccnc3)c2)cc1F -1.15%
Nc1ccc(CC(N)c2csc(Nc3cc(Oc4ccccc4)ncn3)n2)cc1 (stereo not given) -9.32%
CCC(C)[C@H](NC(=O)[C@@H]1Cc2ccccc2CN1)C(=O)NCc1ccc(C)cc1 (stereo not given in full) 20%
CCCc1cc(=O)oc2c(C)c(OCC(=O)N3C[C@H]4C[C@@H](C3)c3cccc(=O)n3C4)ccc12 -5.43%
COc1ccc(C2CC(c3cccs3)=NN2C(=O)CCC(=O)O)cc1OC (stereo not given) -2.94%
O=C(C1CCOCC1)N1[C@H](CO)[C@@H](c2ccccc2)C12CN(Cc1cccnc1)C2 -4.83% [at 21 µM]
CCCN(CCC)CCCNC(=O)c1cc2c(=O)[nH]c3ccccc3c2n1C -5.11%
CCN1CCN(CCC(=O)Nc2ccc(Br)c(C)c2)CC1 -24%
COc1ccc2oc(C(=O)OC(C)C(=O)N3CCC(C)CC3)c(C)c2c1 (stereo not given) 19.8%
CC(C)NC(=O)N1CC[C@@H]2[C@H]1c1cc(Br)ccc1N(C)[C@@H]2CO 6.46%
O=C(NNc1c(F)c(F)cc(F)c1F)C1CCN(S(=O)(=O)c2ccccc2F)CC1 -10.8%
COc1cc(C)nc(N2CCC(C(=O)NCC3CCCO3)CC2)n1 (stereo not given) 18.9%
CCS(=O)(=O)N1CCC2(CC1)OCCN2S(=O)(=O)c1ccccc1 16.5%
C[C@H]1CN=C(Nc2ccccc2)N1CCCC1CCCC1 5.18%
COc1cccc(-c2ncc3ccccc3c2COC(=O)c2ccc(F)cc2)c1 -3.47%
CC(=O)NCCNc1nc(NCc2cccs2)nc2ccsc12 1.39%
C[C@@H]1CCCCO[C@H](CN(C)C(=O)Nc2cccc3ccccc23)[C@@H](C)CN([C@@H](C)CO)C(=O)c2cc(NS(=O)(=O)c3cn(C)cn3)ccc2O1 22.5%

Nothing new here: an excerpt of the list.
CPE protection (higher = active), inactive:
CCCN(CCC)CCCNC(=O)c1cc2c(=O)[nH]c3ccccc3c2n1C -5.11%
CCN1CCN(CCC(=O)Nc2ccc(Br)c(C)c2)CC1 -24%
COc1ccc2oc(C(=O)OC(C)C(=O)N3CCC(C)CC3)c(C)c2c1 (stereo not given) 19.8%

A draw from above in order of molar mass, low to high:
CPE protection (higher = active), inactive:
CCCNC(=O)[C@H]1[C@H](CO)[C@H]2Cn3c(cccc3=O)[C@H]2N1Cc1ccccc1Cl -16.8% [at 21 µM]
O=C(C[C@@H]1CC[C@H]2[C@@H](COC[C@@H](O)CN2Cc2cccc(Cl)c2)O1)N1CCOCC1 -1.26%
C[C@@H]1CCCCO[C@H](CN(C)C(=O)Nc2cccc3ccccc23)[C@@H](C)CN([C@@H](C)CO)C(=O)c2cc(NS(=O)(=O)c3cn(C)cn3)ccc2O1 22.5%

Reference: PubChem BioAssay AID687031 (Broad Institute, 2013)
